Measured values from publication PMC7498369.
These are yes or no findings as the source states them, for the method shown. In cells and extracts the contact can be indirect. Some binding calls cover weakened binding; strength is not graded here. Blank lines part the entries; values can stand above or below the molecule they belong to.

The chains behind the UniProt entries cited, without tags or fusion partners.
UniProt P46527: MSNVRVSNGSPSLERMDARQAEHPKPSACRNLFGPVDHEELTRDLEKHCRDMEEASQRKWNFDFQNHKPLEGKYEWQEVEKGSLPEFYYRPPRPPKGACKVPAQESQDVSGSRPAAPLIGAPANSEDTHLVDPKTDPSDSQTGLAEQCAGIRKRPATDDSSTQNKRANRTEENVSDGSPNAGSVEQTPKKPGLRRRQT

Tests used:
[1] = target: T1, RNF123 (human (endogenous in HCCLM3 and Huh7)) (UniProt Q5XPI4); assay: co-IP; cell lysates (IP lysis buffer) immunoprecipitated with anti-RNF123 antibody (sc-101122), Dynabeads protein G IP kit, western blot for MARC2, p27 and RNF123; HCCLM3 overexpressing MARC2, Huh7, shMARC2-Huh7
T1 sequence: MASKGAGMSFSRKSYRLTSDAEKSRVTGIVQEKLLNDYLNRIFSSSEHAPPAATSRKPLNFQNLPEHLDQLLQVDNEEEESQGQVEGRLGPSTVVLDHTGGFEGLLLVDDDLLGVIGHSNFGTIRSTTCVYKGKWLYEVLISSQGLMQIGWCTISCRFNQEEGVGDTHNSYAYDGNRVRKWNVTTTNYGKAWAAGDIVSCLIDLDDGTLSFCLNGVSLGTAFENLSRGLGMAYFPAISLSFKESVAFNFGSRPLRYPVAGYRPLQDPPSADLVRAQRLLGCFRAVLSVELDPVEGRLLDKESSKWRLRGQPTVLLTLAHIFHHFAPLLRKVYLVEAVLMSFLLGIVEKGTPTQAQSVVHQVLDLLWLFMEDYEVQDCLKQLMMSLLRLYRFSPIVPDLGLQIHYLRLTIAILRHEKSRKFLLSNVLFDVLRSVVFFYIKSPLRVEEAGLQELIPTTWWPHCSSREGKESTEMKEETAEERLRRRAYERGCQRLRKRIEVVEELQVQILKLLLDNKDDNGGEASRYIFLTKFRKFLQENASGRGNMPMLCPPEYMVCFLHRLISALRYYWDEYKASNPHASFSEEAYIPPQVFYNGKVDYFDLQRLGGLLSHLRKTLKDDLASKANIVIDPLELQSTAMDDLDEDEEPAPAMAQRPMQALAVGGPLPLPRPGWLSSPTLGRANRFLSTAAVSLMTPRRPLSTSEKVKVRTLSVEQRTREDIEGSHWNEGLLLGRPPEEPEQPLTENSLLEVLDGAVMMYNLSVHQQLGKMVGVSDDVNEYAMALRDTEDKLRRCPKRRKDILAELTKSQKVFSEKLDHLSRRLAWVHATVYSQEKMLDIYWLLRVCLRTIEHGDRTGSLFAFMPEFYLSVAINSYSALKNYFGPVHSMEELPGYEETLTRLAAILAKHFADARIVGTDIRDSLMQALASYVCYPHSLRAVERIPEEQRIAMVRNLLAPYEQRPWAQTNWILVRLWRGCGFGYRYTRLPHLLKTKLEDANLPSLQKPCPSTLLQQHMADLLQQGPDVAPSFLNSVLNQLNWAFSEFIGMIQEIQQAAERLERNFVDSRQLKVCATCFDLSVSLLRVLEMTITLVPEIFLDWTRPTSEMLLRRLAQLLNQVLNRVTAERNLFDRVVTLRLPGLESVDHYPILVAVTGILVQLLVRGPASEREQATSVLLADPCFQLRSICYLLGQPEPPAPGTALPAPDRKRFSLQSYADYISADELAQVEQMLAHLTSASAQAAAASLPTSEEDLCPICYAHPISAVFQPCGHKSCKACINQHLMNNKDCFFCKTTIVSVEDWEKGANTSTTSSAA

[2] = target: p27 (human (endogenous in HCCLM3 and Huh7)) (UniProt P46527); assay: co-IP; indicated cell lysates immunoprecipitated with anti-p27 antibody, Dynabeads protein G IP kit, western blot

binding [1]: binds
Molecule: p27 (from UniProt P46527 1-198)

binding [1]: binds
B1: mitochondrial amidoxime reducing component 2 (MARC2), exogenous, overexpressed in HCCLM3 cells (enzyme, UniProt Q969Z3 36-335)
chain: GTVAWRRAWPRRRRRLQQVGTVAKLWIYPVKSCKGVPVSEAECTAMGLRSGNLRDRFWLVIKEDGHMVTARQEPRLVLISIIYENNCLIFRAPDMDQLVLPSKQPSSNKLHNCRIFGLDIKGRDCGNEAAKWFTNFLKTEAYRLVQFETNMKGRTSRKLLPTLDQNFQVAYPDYCPLLIMTDASLVDLNTRMEKKMKMENFRPNIVVTGCDAFEEDTWDELLIGSVEVKKVMACPRCILTTVDPDTGVIDRKQPLDTLKSYRLCDPSERELYKLSPLFGIYYSVEKIGSLRVGDPVYRMV

binding [1]: binds
B2: mitochondrial amidoxime reducing component 2 (MARC2), endogenous in Huh7 cells (enzyme, UniProt Q969Z3 36-335)
chain: B1 chain

binding [2]: no binding
B3: mitochondrial amidoxime reducing component 2 (MARC2) in the 'indicated cell lysates' of Fig. 6c (enzyme, UniProt Q969Z3 36-335)
chain: B1 chain
